Measurements taken from US20060281079.

Test system: T1, R2 protein (R2Bm reverse transcriptase/endonuclease) (Bombyx mori)
T1 sequence (limits assumed): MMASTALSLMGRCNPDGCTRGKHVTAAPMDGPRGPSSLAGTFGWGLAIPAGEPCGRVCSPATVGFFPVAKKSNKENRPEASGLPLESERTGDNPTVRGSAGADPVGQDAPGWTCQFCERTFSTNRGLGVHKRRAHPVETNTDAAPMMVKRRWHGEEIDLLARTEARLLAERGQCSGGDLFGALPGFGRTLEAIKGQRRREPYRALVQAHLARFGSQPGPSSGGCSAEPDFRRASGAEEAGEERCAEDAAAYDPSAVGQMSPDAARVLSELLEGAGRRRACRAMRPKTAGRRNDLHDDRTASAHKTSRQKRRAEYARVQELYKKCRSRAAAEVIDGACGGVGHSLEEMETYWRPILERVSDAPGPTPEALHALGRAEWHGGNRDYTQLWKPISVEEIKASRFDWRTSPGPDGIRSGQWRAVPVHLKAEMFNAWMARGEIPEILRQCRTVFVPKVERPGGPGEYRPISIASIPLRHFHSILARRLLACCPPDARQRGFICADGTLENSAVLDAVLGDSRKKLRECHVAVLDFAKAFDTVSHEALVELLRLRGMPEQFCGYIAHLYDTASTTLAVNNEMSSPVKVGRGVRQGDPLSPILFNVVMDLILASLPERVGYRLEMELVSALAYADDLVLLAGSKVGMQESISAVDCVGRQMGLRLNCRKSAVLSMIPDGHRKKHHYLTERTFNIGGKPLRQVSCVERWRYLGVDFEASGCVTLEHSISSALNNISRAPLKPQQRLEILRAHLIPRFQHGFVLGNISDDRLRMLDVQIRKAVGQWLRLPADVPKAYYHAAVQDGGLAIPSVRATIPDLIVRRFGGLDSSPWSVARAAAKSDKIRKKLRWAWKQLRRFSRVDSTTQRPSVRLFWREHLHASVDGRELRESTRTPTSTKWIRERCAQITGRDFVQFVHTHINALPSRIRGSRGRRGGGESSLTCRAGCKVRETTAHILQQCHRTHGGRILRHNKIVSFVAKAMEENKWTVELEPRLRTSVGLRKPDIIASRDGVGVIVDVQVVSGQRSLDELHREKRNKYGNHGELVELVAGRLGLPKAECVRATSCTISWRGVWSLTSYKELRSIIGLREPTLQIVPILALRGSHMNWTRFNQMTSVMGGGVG
Experiment: activity assay
Settings: acceptor of template jump from R2 RNA; did not support R2 RNA shift in EMSA (FIG. 8A lane 3); purified recombinant protein; single-stranded DNA

CGACGGCCAGTGCCAAGCTTGCATGCCTGCAGGTCGACTCTAGAGGATCC [AB.17 50 nt ssDNA]
activity on this sequence: active

Tags and fusion partners may be left off the protein sequences shown.
